These are yes or no findings as the source states them, for the method shown. Some entries that bind do so weakly or less than the wild type.
Tests used:
[1] = target: T1, recombinant human interleukin-5 (human, UniProt P05113 20-134); experiment: affinity chromatography on immobilized human IL-5
T1 sequence (looked up): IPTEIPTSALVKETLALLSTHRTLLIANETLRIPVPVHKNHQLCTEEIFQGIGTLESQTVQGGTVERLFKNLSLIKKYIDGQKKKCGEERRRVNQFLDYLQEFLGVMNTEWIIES

[2] = target: T1, recombinant human interleukin-5; experiment: captured antibody on plate, 125I-IL-5 binding, Scatchard analysis
Protocol: To determine whether the humanized antibodies retained the ability to specifically bind to human IL-5, apparent dissociation constants of antibody/antigen complexes were measured. This was done by coating enzyme immunoassay plates with mouse anti-human IgG_4-Fc (5 µg per ml, 100 ill per well) in 50 mM bicarbonate buffer, pH 9.5. The plates were then blocked at room temperature for 90 minutes with BLOTTO, washed 3 times, and incubated at 37° C. for 2 hours with one of the humanized antibodies, either purified (100 µl per well with a final concentration of 0.05 µg per ml) or in the form of conditioned medium (100 µl per well).
After the plates were washed 3 times, a dilution series of ^125I-labeled human IL-5 at concentrations between 4,000 pM and 2 pM was applied to the wells in each plate in final volumes of 100 µl. All test wells were run in triplicate. Background binding was determined by using a 1000-fold molar excess of unlablled human IL-5 in control wells. The reactions were allowed to equilibrate at room temperature for 2 hours, at which time the wells were aspirated and washed 5 times with TBST. The wells were then separated and counted in a Pharmacia LKB γ-counter. All nonspecific binding controls were run in duplicate. The values obtained for bound human IL-5 were subjected to Scatchard analysis (using RADLIG software) to obtain dissociation constant (kd) values.

- binding [1]: binds
- binding [2]: binds
B1: humanized antibody CMX5-1 (antibody, V domains shown)
VH: QVKLVQAGGGVVQPGRSLRLSCIVSGLSLTSNSVNWIRQAPGKGLEWVALIWSNGDTDYNSAIKSRFTISRDNSKSTLYMQMNSLRTEDTAVYFCAREYYGYFDYWGQGVLVTVSS
VL: DIQMTQSPSSLSVSVGDRVTITCLASEGISSYLAWYQQKPGLAPLLLIYGANSLQTGVPSRFSGSGSATDFTLTISSLQPEDIATYYCQQSYKFPNTFGQGTKVDVKR
notes: VH HIL maximal, VL LAY maximal; also called CMX1; antibody from clone CJA25
